77 compounds from the supplement of paper PMC10398353 can be followed below.

Structures are written as SMILES. “And” between values parts separate entries of the source, which are not always exact repeats. Equal values may be shown once. Where a name gives a salt, the structure may show the parent alone. This is one part of the list. The data scatter; read single values as rough.

This assay relates to Salmonella enterica serovar Typhimurium ST313 D23580. The experiment in a line: normalized bacterial growth (OD600 20 h minus 0 h, interquartile-mean normalized) (fraction of plate interquartile mean); higher = more bacterial growth (less inhibition). The note with it: LPM (pH 5.8, low phosphate, low Mg2+), concentration: 10 µM, temperature: 37 °C.
In turn, `c1ccc2c(CC3=NCCN3)cccc2c1` [Naphazoline hydrochloride] showed a normalized bacterial growth of 1.17. In the case of `c1ccc2c(CC3=NCCN3)cccc2c1`, the normalized bacterial growth stood at 1.2. In turn, `COC(=O)C1=CO[C@@H](C)[C@H]2CN3CCc4c([nH]c5ccccc45)[C@@H]3C[C@H]12` [Ajmalicine hydrochloride] showed a normalized bacterial growth of 1.05. With `O=C(O)[C@@H]1C[C@H](C(=O)O)N1` ["cis-Azetidine-2,4-dicarboxylic acid"], the normalized bacterial growth came out at 1.1. As for `CSC(=N)NCCC[C@H](N)C(=O)O` [S-Methyl-L-thiocitrulline acetate], the figure is 1.1; as for `CO[C@@H]1[C@@H](O[C@@H]2O[C@H](C)[C@@H](O[C@H]3C[C@@](C)(O)[C@@H](OC(=O)CC(C)C)[C@H](C)O3)[C@H](N(C)C)[C@H]2O)[C@@H](CC=O)C[C@@H](C)[C@@H](O)/C=C/C=C/C[C@@H](C)OC(=O)C[C@H]1OC(C)=O` [Josamycin], 0.718. As to `NC(=O)NCCC[C@H](N)C(=O)O`, the normalized bacterial growth was found to be 1.26. As to `C[C@@H]1O[C@@H](O[C@H]2[C@H](Oc3cc(O)c4c(=O)c(O)c(-c5ccc(O)cc5)oc4c3)O[C@H](CO)[C@@H](O)[C@@H]2O)[C@H](O)[C@H](O)[C@H]1O`, the normalized bacterial growth is 1.13.

Compound `O=C1NC(=S)S/C1=C\c1cc(Br)ccc1OCc1ccccc1Br` [PRL-3 Inhibitor I] displayed a normalized bacterial growth of 0.834. In the case of `O=c1oc2c(O)c(O)cc3c(=O)oc4c(O)c(O)cc1c4c23` it was 0.915; in that of `NS(=O)(=O)c1cc2c(cc1Cl)NC(C1CC3C=CC1C3)NS2(=O)=O` (configuration not stated) [Cyclothiazide], 1.16; in that of `O=C1NS(=O)(=O)c2ccccc21`, 1.24. In the case of `CC(=O)CC(c1ccccc1)c1c(O)c2ccccc2oc1=O` (configuration not stated) it was 1.01.

The compound `S=C(S)N1CCCC1` [Ammonium pyrrolidinedithiocarbamate] returned a normalized bacterial growth of 1.11. In turn, `CC[C@H](CO)Nc1nc(NCc2ccccc2)c2ncn(C(C)C)c2n1` [Roscovitine] showed a normalized bacterial growth of 1.04. In the case of `OCCN(CCO)c1nc(N2CCCCC2)c2nc(N(CCO)CCO)nc(N3CCCCC3)c2n1` [Dipyridamole] it was 1.23. As to `O=C(O)c1ccccc1C(=O)Nc1ccc(S(=O)(=O)Nc2nccs2)cc1`, the normalized bacterial growth amounted to 0.816. Take `C[N+](C)(C)CC(=O)O` [Betaine hydrochloride]: the normalized bacterial growth came to 1.2. `C[N+](C)(C)CC(=O)O` registered a normalized bacterial growth of 1.13.

Compound `C[C@]12CC[C@@H]3c4ccc(OC(=O)c5ccccc5)cc4CC[C@H]3[C@@H]1CC[C@@H]2O` registered a normalized bacterial growth of 0.595.

Turning to `CN1CCN(C(c2ccccc2)c2ccccc2)CC1`, the normalized bacterial growth worked out at 0.852. In the case of `CN1CCN(C(c2ccccc2)c2ccccc2)CC1` [Cyclizine hydrochloride], the normalized bacterial growth was determined as 1.46. Turning to `C(=C\c1ccccc1)/CN1CCN(C(c2ccccc2)c2ccccc2)CC1`, the normalized bacterial growth was determined as 0.927. For `NO` [Hydroxylamine hydrochloride], the normalized bacterial growth was found to be 1. Take `Nc1nc(Cl)nc2c1ncn2[C@@H]1O[C@H](CO)[C@@H](O)[C@H]1O` [2-Chloroadenosine]: the normalized bacterial growth came to 0.527. Consider `CC(=O)OCC(=O)[C@@]1(O)CCC2C3CCC4=CC(=O)C=C[C@]4(C)[C@@]3(F)[C@@H](O)C[C@@]21C` (some centres not stated), for which the normalized bacterial growth is 0.869. Regarding `C[C@@H]1C[C@H]2[C@@H]3CCC4=CC(=O)C=C[C@]4(C)[C@@]3(F)[C@@H](O)C[C@]2(C)[C@@]1(O)C(=O)COP(=O)(O)O`, the normalized bacterial growth is 1.17. In the case of `CCN(CC)CCNC(C(=O)OCCC(C)C)c1ccccc1` (configuration not stated) it was 1.05; in that of `Nc1cc(Cl)c(NC2=NCCN2)c(Cl)c1` [p-Aminoclonidine hydrochloride], 1.06.

Compound `O=C(Cc1ccc(Cl)c(Cl)c1)OCCN1CCCC1` [AC 915 oxalate] returned a normalized bacterial growth of 1.14. The compound `N[C@@H](Cc1cc(I)c(Oc2ccc(O)c(I)c2)c(I)c1)C(=O)O` registered a normalized bacterial growth of 1.08. `N[C@@H](Cc1cc(I)c(Oc2ccc(O)c(I)c2)c(I)c1)C(=O)O` [LIOTHYRONINE (L- isomer) SODIUM] had a normalized bacterial growth of 0.465. `N[C@@H](Cc1cc(I)c(Oc2ccc(O)c(I)c2)c(I)c1)C(=O)O` [Liothyronine] had a normalized bacterial growth of 0.491. Compound `CN1CCC(=C2c3ccccc3Sc3ccccc32)CC1` displayed a normalized bacterial growth of 0.977. For `Nc1c2ccccc2nc2ccccc12`, the normalized bacterial growth was 0.816. For the compound `Cc1ccc(=O)n(-c2ccccc2)c1` [Pirfenidone], the normalized bacterial growth is 1.07. On to `COC1=CC(=O)C(C(=O)c2ccccc2)=CC1=O`, for which the normalized bacterial growth was determined as 1.03.

In the case of `CC(C)c1ccc2c(c1)CCC1[C@](C)(CN)CCC[C@]21C` (some centres not stated), the normalized bacterial growth amounted to 1.17.

`C[C@H](CCC(=O)O)[C@H]1CC[C@H]2[C@@H]3[C@@H](O)C[C@@H]4C[C@H](O)CC[C@]4(C)[C@H]3CC[C@]12C` had a normalized bacterial growth of 0.799. In turn, `C[C@H](CCC(=O)O)[C@H]1CC[C@H]2[C@@H]3[C@@H](O)C[C@@H]4C[C@H](O)CC[C@]4(C)[C@H]3CC[C@]12C` [Urosiol] showed a normalized bacterial growth of 0.851. In turn, `C#C[C@]1(O)CC[C@H]2[C@@H]3CCC4=CCCC[C@@H]4[C@H]3CC[C@@]21C` [Lynestrenol] showed a normalized bacterial growth of 0.789. In the case of `Cc1cc(NC(=O)Nc2ccc3c(ccn3C)c2)sn1` it was 1.03; in that of `O=C(CCCN1CCN(c2ccccn2)CC1)c1ccc(F)cc1`, 0.898; in that of `N[C@@H](CS(=O)O)C(=O)O` [L-Cysteinesulfinic Acid], 1.28. In turn, `NC[C@@H]1O[C@@H](O[C@H]2[C@H](O)[C@@H](O[C@H]3O[C@H](CO)[C@@H](O)[C@H](N)[C@H]3O)[C@H](N)C[C@@H]2N)[C@@H](O)[C@H](O)[C@H]1O` displayed a normalized bacterial growth of 0.887. In the case of `NC[C@@H]1O[C@@H](O[C@H]2[C@H](O)[C@@H](O[C@H]3O[C@H](CO)[C@@H](O)[C@H](N)[C@H]3O)[C@H](N)C[C@@H]2N)[C@@H](O)[C@H](O)[C@H]1O` [Kanamycin A sulfate], the normalized bacterial growth turned out to be 0.95.

In turn, `COC(=O)[C@H](NC(=O)c1cc(-c2ccccc2)nc2ccccc12)c1ccccc1` came in with a normalized bacterial growth of 0.869. `N#Cc1cc2nc(O)c(O)nc2cc1[N+](=O)[O-]` [CNQX disodium] gave a normalized bacterial growth of 1.37.

`CN1CCc2cc(O)c(O)cc2C1Cc1ccc(O)c(O)c1` (configuration not stated) gave a normalized bacterial growth of 1.05. `C[C@@H](CN1CCC(Cc2ccccc2)CC1)[C@@H](O)c1ccc(O)cc1` [Ro 25-6981 hydrochloride] registered a normalized bacterial growth of 1.18. `CC1CC(OC(=O)c2ccccc2O)CC(C)(C)C1` (configuration not stated): the normalized bacterial growth is 1.46.

`Nc1c2c(nc3ccccc13)CCCC2` ["9-Amino-1,2,3,4-tetrahydroacridine hydrochloride"]: the normalized bacterial growth was found to be 1.14. Consider `O=c1cc(-c2ccccc2)oc2cc(O)cc(O)c12`, for which the normalized bacterial growth amounted to 1.46.

The compound `C=C[C@@]1(C)CC(=O)[C@]2(O)[C@@]3(C)[C@@H](O)CCC(C)(C)[C@@H]3[C@H](O)[C@H](OC(C)=O)[C@@]2(C)O1` [Forskolin] had a normalized bacterial growth of 0.733. With `C=C[C@@]1(C)CC(=O)[C@]2(O)[C@@]3(C)[C@@H](O)CCC(C)(C)[C@@H]3[C@H](O)[C@H](OC(C)=O)[C@@]2(C)O1`, the normalized bacterial growth was 1.14 and 0.947.

Take `CN(Cc1cnc2nc(N)nc(N)c2n1)c1ccc(C(=O)NC(CCC(=O)O)C(=O)O)cc1` (racemic): the normalized bacterial growth was found to be 1.07. `C/C(=C(\CCOP(=O)(O)O)SC(=O)c1ccccc1)N(C=O)Cc1cnc(C)nc1N` [Benfotiamine] had a normalized bacterial growth of 1.18. Take `CC1(C)O[C@@H]2C[C@H]3[C@@H]4CCC5=CC(=O)C=C[C@]5(C)[C@H]4[C@@H](O)C[C@]3(C)[C@]2(C(=O)CO)O1`: the normalized bacterial growth came to 1.02. `c1ccc(-c2ccccn2)nc1` ["2,2'-Bipyridyl"] showed a normalized bacterial growth of 1.29. Regarding `COc1ccccc1N1CCN(CCN(C(=O)c2ccc(F)cc2)c2ccccn2)CC1` [p-MPPF dihydrochloride], the normalized bacterial growth was determined as 0.792. Compound `O=C(O)Cc1cc(I)c(Oc2cc(I)c(O)c(I)c2)c(I)c1` came in with a normalized bacterial growth of 0.913.

Compound `CCN(CC)CCOc1ccc2c(c1)C(=O)c1cc(OCCN(CC)CC)ccc1-2` registered a normalized bacterial growth of 0.796.

`Oc1ccc(Cn2cc[nH]c2=S)cc1` [1-(4-Hydroxybenzyl)imidazole-2-thiol] displayed a normalized bacterial growth of 0.99. In turn, `NC[C@H]1O[C@H](O[C@H]2[C@H](O)[C@@H](O[C@H]3O[C@H](CO)[C@@H](O)[C@H](N)[C@H]3O)[C@H](N)C[C@@H]2N)[C@H](O)[C@@H](O)[C@@H]1O` displayed a normalized bacterial growth of 1.08. `CC[C@H]1OC(=O)C[C@@H](O)[C@H](C)[C@@H](O[C@@H]2O[C@H](C)[C@@H](O[C@H]3C[C@@](C)(O)[C@@H](O)[C@H](C)O3)[C@H](N(C)C)[C@H]2O)[C@@H](CC=O)C[C@@H](C)C(=O)/C=C/C(C)=C/[C@@H]1CO[C@@H]1O[C@H](C)[C@@H](O)[C@@H](OC)[C@H]1OC`: the normalized bacterial growth was 0.923. `O=C(/C=C/c1ccc(O)c(O)c1)c1ccc(O)cc1O` yielded a normalized bacterial growth of 1.04. `COc1ccc2c(=O)c(-c3ccc(O)cc3)coc2c1`: the normalized bacterial growth is 0.968.

As for `CNS(=O)(=O)c1ccc(NC(=O)c2ccccc2C(=O)O)cc1`, the normalized bacterial growth was 1. Compound `Cc1cc(C)c(NC(=O)C[C@H](CC(=O)O)c2cccc3ccccc23)c(C(=O)N2CCC3(CCCC3)CC2)c1` gave a normalized bacterial growth of 0.718.

Take `COC(=O)CC1C(C)(C)C(OC(C)=O)[C@@H]2[C@@H](OC(C)=O)[C@]34O[C@@]2(O)[C@]1(C)C3CC[C@]1(C)C4=CC(=O)O[C@H]1c1ccoc1` (some centres not stated): the normalized bacterial growth is 0.814. The compound `CC1(C)S[C@@H]2[C@H](NC(=O)[C@H](C(=O)O)c3ccsc3)C(=O)N2[C@H]1C(=O)O` came in with a normalized bacterial growth of 1.07. Consider `CC(C)CN(C)c1nc(N)c(C(=O)N=C(N)N)nc1Cl` [5-(N-Methyl-N-isobutyl)amiloride], for which the normalized bacterial growth worked out at 1.06. As for `CN[C@@H]1[C@@H](O)[C@@H](O[C@@H]2[C@@H](O)[C@H](O[C@H]3OC(CN)=CC[C@H]3N)[C@@H](N)C[C@H]2N)OC[C@]1(C)O` [Sisomicin sulfate], the figure is 1.12; as for `CN[C@@H]1[C@@H](O)[C@@H](O[C@@H]2[C@@H](O)[C@H](O[C@H]3OC(CN)=CC[C@H]3N)[C@@H](N)C[C@H]2N)OC[C@]1(C)O`, 1.24.

Turning to `Cc1cc(NS(=O)(=O)c2ccc(N)cc2)no1`, the normalized bacterial growth amounted to 1. The compound `O=C(c1ccc2c(c1)OCCO2)N1CCCCC1` showed a normalized bacterial growth of 0.818. In turn, `C=C[C@@H](C1=CC(=O)C(OC)=C(OC)C1=O)c1ccccc1` registered a normalized bacterial growth of 1.09.
